Where “and” joins values, the source holds several entries; their conditions need not be identical. Equal values may be shown once. The name of at least one read-out is uncertain.
Test system: Escherichia coli (E. coli—ATCC #10536)
Assay: Synergy test: high resolution MBC microtiter plate assay, phosphate buffer containing 35% dipropylene glycol, 15 seconds contact
Assay type: cell-based
Conditions: component alone (Qb = 0); E. coli 10536; complete kill in 15 seconds
Description: One measure of synergy is -the industrially accepted method described by Kull, F. C.; Eisman, P. C.; Sylwestrowicz, H. D. and Mayer, R. L., in Applied Microbiology 9:538-541 (1961), using the ratio determined by the formula:
Qa/QA+Qb/QB=Synergy Index (“SI”)
wherein: QA=concentration of compound A (first component) in percent, acting alone, which produced an end point (MBC of Compound A). Qa =concentration of compound A in percent, in the mixture, which produced an end point. QB=concentration of compound B (second component) in percent, acting alone, which produced an end point (MBC of Compound B). Qb=concentration of compound B in percent, in the mixture, which produced an end point. […]
Synergy tests were-conducted using standard microtiter plate assays with, phosphate buffer containing 35% dipropylene glycol (DPG). […] High resolution MBCs were determined by adding varying amounts of microbicide to one column of a microtiter plate and doing subsequent ten-fold dilutions using an automated liquid handling system to obtain a series of closely spaced endpoints. […] The TSB plate was incubated at 37° C. and read for the presence/absence of growth at 24 hours. […]
The synergy of the combinations of the present invention was determined against a bacterium, Escherichia coli (E. coli—ATCC #10536), at a concentration of approximately 1×10^8 bacteria per mL. […]

SMILES: Cc1ccc(C(C)C)cc1O [5-isopropyl-2-methylphenol]
- Qa: MBC of the first component (A) acting alone (QA): 0.3 weight % and 0.6 weight % and 0.4 weight %

Source: US20150087723A1, “MICROBIAL COMPOSITION” (Rohm and Haas Company, priority 2011, published 2015)
